Measurements from patent US11007274B2, “Compounds for medicinal applications” (Ausvir Therapeutics Pty LTD, priority 2015, dated 2021).

Tested on: kinases
Assay: KINOME scan profiling (Table 41)
Conditions: at 100 nM

## CC(=O)N[C@H]1[C@H]([C@H](OC(=O)NCCCCCCCCCNC(=O)c2cc(C(=O)NCCCCCCCCCNC(=O)O[C@@H]([C@@H]3OC(C(=O)O)=C[C@H](NC(=N)N)[C@H]3NC(C)=O)[C@H](O)CO)c(C(=O)N[C@H](CC(=O)NCS(=O)(=O)O)C(=O)NCS(=O)(=O)O)cc2C(=O)N[C@H](CC(=O)NCS(=O)(=O)O)C(=O)NCS(=O)(=O)O)[C@H](O)CO)OC(C(=O)O)=C[C@@H]1NC(=N)N [MD185, PK2PYR(Zn)2[(D-Asp)(NHCH2SO3)2]2]
  interaction between compounds and kinases: no significant interaction
